Assay [1] addresses T1, HA-tagged mGBP2 (murine guanylate binding protein 2) (mouse) (UniProt Q9Z0E6).
T1 sequence: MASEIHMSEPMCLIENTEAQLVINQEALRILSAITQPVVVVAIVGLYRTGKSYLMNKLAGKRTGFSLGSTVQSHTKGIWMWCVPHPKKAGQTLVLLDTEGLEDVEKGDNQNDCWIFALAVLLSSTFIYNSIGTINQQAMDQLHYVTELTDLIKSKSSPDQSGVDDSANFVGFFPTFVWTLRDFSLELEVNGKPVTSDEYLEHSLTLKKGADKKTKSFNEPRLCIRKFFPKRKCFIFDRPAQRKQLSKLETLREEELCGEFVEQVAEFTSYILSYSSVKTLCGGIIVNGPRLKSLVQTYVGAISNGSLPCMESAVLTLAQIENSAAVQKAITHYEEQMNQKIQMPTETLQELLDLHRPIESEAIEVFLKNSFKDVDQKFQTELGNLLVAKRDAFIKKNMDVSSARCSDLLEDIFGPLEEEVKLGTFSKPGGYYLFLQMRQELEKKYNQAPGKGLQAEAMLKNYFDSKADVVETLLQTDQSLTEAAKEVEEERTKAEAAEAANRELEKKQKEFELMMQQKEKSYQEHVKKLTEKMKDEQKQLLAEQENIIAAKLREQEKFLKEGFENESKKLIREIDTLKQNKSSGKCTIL
In words: affinity purification with mass spectrometry.

By UniProt entry, the sequences of proteins in these tests, tags left out.
UniProt O08573: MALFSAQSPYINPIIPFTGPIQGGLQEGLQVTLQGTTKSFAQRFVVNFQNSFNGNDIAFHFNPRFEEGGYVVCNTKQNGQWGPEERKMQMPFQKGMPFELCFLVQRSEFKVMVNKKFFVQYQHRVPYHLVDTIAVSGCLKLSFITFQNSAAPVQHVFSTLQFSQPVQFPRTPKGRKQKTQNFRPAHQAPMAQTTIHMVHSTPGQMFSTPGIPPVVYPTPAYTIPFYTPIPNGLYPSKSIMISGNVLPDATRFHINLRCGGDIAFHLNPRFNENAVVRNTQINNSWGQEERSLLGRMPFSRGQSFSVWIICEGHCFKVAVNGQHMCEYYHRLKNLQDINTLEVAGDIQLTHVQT

Assay [2] concerns the target T1, HA-tagged mGBP2 (murine guanylate binding protein 2) (mouse). As to the kind of experiment: affinity purification with mass spectrometry. The source holds these as a separate data set.

Where two headings read alike, the source gives them in different places. No constants are given. Whether binding was seen depends on the method and setting. In cells and extracts the contact can be indirect. Here binding means that the protein was enriched with, or labelled near, the bait; the list need not be complete. Tags and fused reporters may be left off the sequences shown.

“Galectin-9 (Gal9), endogenous (from UniProt O08573 1-353)”: the binding entry in assay [1] is listed as “binds”.

B1: mGBP5 (murine guanylate binding protein 5) (protein, UniProt Q8CFB4 1-590)
chain: MAPEIHMPEPLCLIGSTEGHLVTNQEALKILSAITQPVVVVAIVGLYRTGKSYLMNKLAGKEKGFSVGSTVQSHTKGIWMWCVPHPQKPDHTLVLLDTEGLGDVEKDDKKNDTQIFALAILLSSTFVYNTMNKIDQGAIDLLHNVTELTDLLRTRNSSDSNQTEGEGPADMSFFPDLVWTLRDFFLDLQANGHAITSDEYLENSLKLKQGSDERTQTFNLPRLCIQKFFPVKKCFVFDAPALGSKLSQLPTLSNEELNSDFVQDLSEFCSHIFTQSKTKTLPGGIQVNGPRLESLVLTYVDAINSGALPSIENTVVTLARRENSAAVQKAIGHYDQLMSEKVQLPTETLQELLDLHRTCEREAIEIFRKHSFKDEGEFFQKELESLLSAKQDEICKKNADASAALCSTLLGSIFKPLEQEVAQEFYHKPGGHKLFLQRMEQLKANYRQQPGKGTQAEEVLQTYLNAKETVSRTILQTDQVLTDKEIQSKAEQERAEAARLEAQRLEAIRIQEEQRKAEMERQHQEQLRQIALEKARVAQEQQWILKQRAQEEADRIKAEQEAQLRALQQQLQHMREMNHHRRHHHDCVIS
In the case of B1, in assay [2], the binding entry is recorded as “binds”.

B2: mGBP1 (murine guanylate binding protein 1) (protein, UniProt Q01514 1-589)
chain: MASEIHMSEPMCLIENTEAQLVINQEALRILSAITQPVVVVAIVGLYRTGKSYLMNKLAGKRTGFSLGSTVQSHTKGIWMWCVPHPKKAGQTLVLLDTEGLEDVEKGDNQNDCWIFALAVLLSSTFIYNSIGTINQQAMDQLHYVTELTDLIKSKSSPDQSDVDNSANFVGFFPIFVWTLRDFSLDLEFDGESITPDEYLETSLALRKGTDENTKKFNMPRLCIRKFFPKRKCFIFDRPGDRKQLSKLEWIQEDQLNKEFVEQVAEFTSYIFSYSGVKTLSGGITVNGPRLKSLVQTYVSAICSGELPCMENAVLTLAQIENSAAVQKAITYYEEQMNQKIHMPTETLQELLDLHRTCEREAIEVFMKNSFKDVDQKFQEELGAQLEAKRDAFVKKNMDMSSAHCSDLLEGLFAHLEEEVKQGTFYKPGGYYLFLQRKQELEKKYIQTPGKGLQAEVMLRKYFESKEDLADTLLKMDQSLTEKEKQIEMERIKAEAAEAANRALAEMQKKHEMLMEQKEQSYQEHMKQLTEKMEQERKELMAEQQRIISLKLQEQERLLKQGFQNESLQLRQEIEKIKNMPPPRSCTIL
Regarding B2, the binding entry in assay [2] is “binds”.

Values taken from paper doi:10.1101/2021.12.28.474342.
